± gives the standard deviation of the averaged measurements. The list shows a part of the results.
Test system: Madurella mycetomatis MM55
Experiment: metabolic activity (growth) relative to DMSO growth control; higher = more fungal growth

Row | Structure (SMILES) | metabolic activity (1 µM) | metabolic activity (2 µM) | metabolic activity (10 µM)
1 | Nc1nonc1-n1ncc2c(NC(=O)c3ccccc3Cl)cccc21 | 99.1 ± 17% | 102 ± 25% | 104 ± 20%
2 | CN1CCN(c2ccc(Nc3ncc4c(=O)n(-c5c(Cl)cncc5Cl)nc(-c5ccccn5)c4n3)cc2)CC1.Cl.Cl | 105 ± 36% | 112 ± 31% | 99.5 ± 24%
3 | O=C(O)/C=C/C(=O)O.OCCCNc1nccc(-c2c(-c3ccc(F)cc3)nn3cc(C(F)(F)F)ccc23)n1 | 107 ± 21% | 72.5 ± 15% | 84.6 ± 3.8%
4 | Cc1cc2c(N)n[nH]c2cc1-c1cnn(Cc2ccccc2)c1 | 97 ± 15% | 96.9 ± 4.1% | 97.6 ± 6.1%
5 | COc1ccc(CSc2nnc(-c3ccc4ncsc4c3)o2)cc1C(F)(F)F | 96 ± 24% | 76.43 ± 0.69% | 98 ± 24%
6 | COc1cc(Nc2nccc(-c3cnn4nc(OC)ccc34)n2)cc(C(F)(F)F)c1 | 119 ± 15% | 114 ± 36% | 109 ± 1.1%
7 | COc1cc(-c2ccc3c(N)n[nH]c3c2)ccn1 | 83.4 ± 3.4% | 83.7 ± 17% | 81.6 ± 2.5%
8 | CNC(=O)c1nn(C)c2c1C(C)(C)Cc1cnc(Nc3ccc(N4CCN(C)CC4)cc3C)nc1-2 | 122 ± 17% | 115 ± 20% | 117 ± 7.7%
9 | Cc1cccc(NC(=O)Nc2ccc(-c3cncc4c3c(N)nn4C)cc2)c1 | 130 ± 44% | 110 ± 14% | 110 ± 0.93%
10 | COc1cc2ncn(-c3cc(OCC4CCCO4)c(C(N)=O)s3)c2cc1OC (stereo not given) | 107 ± 1.8% | 116 ± 21% | 96 ± 27%
11 | CCOc1cc(C(=O)N2CCC(N3CCN(C)CC3)CC2)ccc1Nc1ncc2c(n1)N(C1CCCC1)c1ccccc1C(=O)N2C | 99.8 ± 28% | 81.5 ± 5.4% | 90.3 ± 14%
12 | CC(C)(C)c1ccc(C(=O)Nc2cn3cc(-c4cccnc4)ccc3n2)cc1 | 121 ± 3.1% | 93.7 ± 23% | 119 ± 9.8%
13 | Cc1cccc(CC(=O)N2CCc3c2ccc(-c2cn(C)c4ncnc(N)c24)c3F)n1 | 88.6 ± 3.5% | 81.8 ± 29% | 110 ± 4%
14 | Cc1sc2ncnc(N)c2c1-c1ccc(NC(=O)c2cc3ccccc3[nH]2)cc1 | 102 ± 24% | 97.6 ± 19% | 117 ± 8.7%
15 | CCOc1cc(N2CCC(O)CC2)ccc1Nc1ncc2c(n1)N(C)c1ccccc1C(=O)N2C | 95.4 ± 12% | 87.4 ± 10% | 90.4 ± 10%
16 | NC(=O)c1cccnc1COc1cc(-c2ccc(N3CCOCC3)nc2)cc2ncccc12 | 106 ± 2.2% | 73.2 ± 14% | 95.5 ± 34%
17 | Cc1ccc(NC(=O)c2cc(N3CCOCC3)cc(S(F)(F)(F)(F)F)c2)cc1Nc1cc(-c2cn[nH]c2)nn1C | 106 ± 2.9% | 112 ± 55% | 107 ± 40%
18 | COc1cc(C=NNc2ncnc3c2cnn3-c2ccccc2)ccc1O | 97.3 ± 22% | 92.8 ± 5.1% | 101 ± 2.9%
19 | CC[C@@H](CO)Nc1ccnc(Nc2cccc(NC(=O)C(C)C)c2)n1 | 97.9 ± 2.8% | 87.8 ± 3.9% | 117 ± 2.9%
20 | Cc1cccc(-c2nc(Nc3ccc4ncoc4c3)c3ccccc3n2)n1 | 99 ± 34% | 75.6 ± 50% | 126 ± 18%
21 | CNCc1ccc(-c2cc(-c3nc(-c4ccc(S(=O)(=O)C(C)C)cc4)cnc3N)on2)cc1 | 111 ± 4.6% | 86.932 ± 0.0097% | 92.7 ± 10%
22 | CC(=O)c1cccc(NC(=O)NC2CCN(c3ccnc(Nc4ccc(F)cc4)n3)C2)c1 (stereo not given) | 98.5 ± 2.9% | 103 ± 22% | 94.4 ± 1.1%

15 entries from above, as tab-separated lines:
Row	Structure (SMILES)	metabolic activity (1 µM)	metabolic activity (2 µM)	metabolic activity (10 µM)
2	CN1CCN(c2ccc(Nc3ncc4c(=O)n(-c5c(Cl)cncc5Cl)nc(-c5ccccn5)c4n3)cc2)CC1.Cl.Cl	105 ± 36%	112 ± 31%	99.5 ± 24%
3	O=C(O)/C=C/C(=O)O.OCCCNc1nccc(-c2c(-c3ccc(F)cc3)nn3cc(C(F)(F)F)ccc23)n1	107 ± 21%	72.5 ± 15%	84.6 ± 3.8%
4	Cc1cc2c(N)n[nH]c2cc1-c1cnn(Cc2ccccc2)c1	97 ± 15%	96.9 ± 4.1%	97.6 ± 6.1%
6	COc1cc(Nc2nccc(-c3cnn4nc(OC)ccc34)n2)cc(C(F)(F)F)c1	119 ± 15%	114 ± 36%	109 ± 1.1%
8	CNC(=O)c1nn(C)c2c1C(C)(C)Cc1cnc(Nc3ccc(N4CCN(C)CC4)cc3C)nc1-2	122 ± 17%	115 ± 20%	117 ± 7.7%
9	Cc1cccc(NC(=O)Nc2ccc(-c3cncc4c3c(N)nn4C)cc2)c1	130 ± 44%	110 ± 14%	110 ± 0.93%
11	CCOc1cc(C(=O)N2CCC(N3CCN(C)CC3)CC2)ccc1Nc1ncc2c(n1)N(C1CCCC1)c1ccccc1C(=O)N2C	99.8 ± 28%	81.5 ± 5.4%	90.3 ± 14%
14	Cc1sc2ncnc(N)c2c1-c1ccc(NC(=O)c2cc3ccccc3[nH]2)cc1	102 ± 24%	97.6 ± 19%	117 ± 8.7%
15	CCOc1cc(N2CCC(O)CC2)ccc1Nc1ncc2c(n1)N(C)c1ccccc1C(=O)N2C	95.4 ± 12%	87.4 ± 10%	90.4 ± 10%
16	NC(=O)c1cccnc1COc1cc(-c2ccc(N3CCOCC3)nc2)cc2ncccc12	106 ± 2.2%	73.2 ± 14%	95.5 ± 34%
17	Cc1ccc(NC(=O)c2cc(N3CCOCC3)cc(S(F)(F)(F)(F)F)c2)cc1Nc1cc(-c2cn[nH]c2)nn1C	106 ± 2.9%	112 ± 55%	107 ± 40%
18	COc1cc(C=NNc2ncnc3c2cnn3-c2ccccc2)ccc1O	97.3 ± 22%	92.8 ± 5.1%	101 ± 2.9%
19	CC[C@@H](CO)Nc1ccnc(Nc2cccc(NC(=O)C(C)C)c2)n1	97.9 ± 2.8%	87.8 ± 3.9%	117 ± 2.9%
20	Cc1cccc(-c2nc(Nc3ccc4ncoc4c3)c3ccccc3n2)n1	99 ± 34%	75.6 ± 50%	126 ± 18%
22	CC(=O)c1cccc(NC(=O)NC2CCN(c3ccnc(Nc4ccc(F)cc4)n3)C2)c1 (stereo not given)	98.5 ± 2.9%	103 ± 22%	94.4 ± 1.1%

More results follow:

Row | Structure (SMILES) | metabolic activity (1 µM) | metabolic activity (2 µM) | metabolic activity (10 µM)
23 | CCOc1nc(C(=O)NCc2ccccc2S(N)(=O)=O)cc(N)c1C#N | 106 ± 3.9% | 71.98 ± 0.41% | 119 ± 12%
24 | Cc1c(Cn2c(C)nn3c(=O)cc(N4CCO[C@H](C)C4)nc23)cccc1C(F)(F)F | 87.9 ± 20% | 97.5 ± 25% | 97.1 ± 24%
25 | COc1cc(C(=O)NC2CCN(C)CC2)ccc1Nc1ncc2c(n1)N(C1CCCC1)CC(F)(F)C(=O)N2C | 100 ± 4.1% | 117 ± 7.4% | 99.3 ± 19%
26 | FC1=CC(C3=NC2=CC(OC)=C(OC)C=C2C(N[C@H]4[C@H]([C@](C)(O)C)CNC4)=N3)=C(O)C=C1.Cl.Cl | 120 ± 19% | 93.2 ± 4.9% | 101 ± 17%
27 | CCCNC(=O)c1ccc(Nc2ncc(C(F)(F)F)c(Nc3ccccc3C(C)=O)n2)c(Br)c1 | 90.8 ± 4.8% | 125 ± 29% | 112 ± 1.8%
28 | O=C(Nc1cccc(-c2nn3ncccc3c2-c2ccnc(Nc3cccnc3)n2)c1)c1c(F)cccc1F | 87.9 ± 6.8% | 76.82 ± 0.25% | 97.3 ± 9.8%
29 | CN(C)C/C=C/C(=O)Nc1ccc(C(=O)Nc2cccc(Nc3ncc(Cl)c(-c4c[nH]c5ccccc45)n3)c2)cc1 | 111 ± 22% | 76.9 ± 25% | 113 ± 2%
30 | O=C(NCCCN1CCOC1=O)c1cnc(NCc2cc(Cl)ccc2Cl)nc1NC1CCCC1 | 92.1 ± 7.8% | 89 ± 13% | 99.3 ± 16%
31 | CC[C@@H](CO)Nc1nc(Nc2cccc(NC(=O)C(C)(C)C)c2)ncc1F | 107 ± 7.5% | 113 ± 21% | 126 ± 5.8%
32 | COCCOCC#Cc1cc(-c2n[nH]c3c2C(=O)c2cc(CN4CCN(C)CC4)ccc2-3)cs1 | 84.1 ± 21% | 97.9 ± 21% | 89.7 ± 26%
33 | CN1c2ccccc2C(=O)Nc2cnc(Nc3ccc(S(=O)(=O)NCCCNC(=O)OC(C)(C)C)cc3)nc21 | 86.98 ± 0.86% | 109 ± 20% | 84.1 ± 11%
34 | Cn1nc(N)c2c(-c3ccc(NC(=O)Nc4cccc(Cl)c4)cc3)cncc21 | 104 ± 12% | 70.1 ± 5.7% | 127 ± 14%
35 | Cl.c1ccc(Cc2nc3ccc(Nc4ncnc5ccccc45)cc3[nH]2)cc1 | 80 ± 3% | 82.3 ± 8.9% | 109 ± 6.5%
36 | CNC(=O)c1ccc(C)c(-n2c(C)cc(OCc3ccc(F)cc3F)c(Br)c2=O)c1 | 124 ± 13% | 137 ± 18% | 98.9 ± 25%
37 | Cc1nnc(-c2ccc3occ(-c4ccc(S(C)=O)cc4)c3c2)[nH]1 (stereo not given) | 88.1 ± 9.7% | 84.3 ± 3% | 114 ± 15%
38 | CCN(CC)S(=O)(=O)Nc1cccc(-c2ccc3c(NC(=O)C4CC4)n[nH]c3c2)c1 | 92.8 ± 36% | 101 ± 7.8% | 133 ± 21%
39 | CC(C)(C)c1cnc(CSc2cnc(NC(=O)C3CCS(=O)(=O)CC3)s2)o1 | 117 ± 23% | 95.2 ± 41% | 104 ± 16%
40 | CCn1c(-c2nonc2N)nc2cncc(CNC3CCNCC3)c21 | 108 ± 20% | 112 ± 21% | 154 ± 43%
41 | CC(C)c1nnc2ccc(-c3c(-c4ccc(F)cc4F)nc4occn34)cn12 | 80.5 ± 1.1% | 96.5 ± 7.9% | 113 ± 5.8%
42 | COc1cc(N2CCN(C)CC2)ccc1Nc1ncc(Cl)c(Oc2cccc(NC(=O)CC(F)(F)F)c2)n1 | 87.1 ± 2.3% | 96.4 ± 12% | 103 ± 7.1%
43 | CCS(=O)(=O)c1ccc(OC)c(Nc2ncc(-c3cccc(OC)c3)o2)c1 | 113 ± 4.2% | 72.9 ± 4.2% | 97.4 ± 16%
44 | CC(C)N1CCN(Cc2cnc(-c3cc(-c4cccc5[nH]ccc45)cc4[nH]ncc34)o2)CC1 | 97.1 ± 21% | 88.4 ± 17% | 120 ± 24%

Row | Structure (SMILES) | metabolic activity (1 µM) | metabolic activity (2 µM) | metabolic activity (10 µM)
45 | O=C1Nc2ccccc2SC1=Cc1c[nH]c2cc(OCCN3CCOCC3)ccc12 | 97.9 ± 18% | 119 ± 4% | 107 ± 7.3%
46 | CCC(=O)c1c(-c2ccccc2)c2cc(Cl)ccc2c(=O)n1Cc1cc(S(C)(=O)=O)n(CC(N)=O)n1 | 109.2 ± 0.11% | 77.2 ± 2.5% | 113 ± 11%
47 | C[C@H]([NH2+]c1nc(-c2c[nH]c3ncc(Cl)cc23)cn(C)c1=O)C(=O)NCC(F)(F)F.O=C([O-])C(F)(F)F | 96.8 ± 8.5% | 63.2 ± 42% | 134.3 ± 1.3%
48 | COc1cc2ncnc(Nc3ccc4c(cnn4Cc4ccccc4)c3)c2cc1OC.Cl | 89.7 ± 34% | 97.9 ± 14% | 89.5 ± 4.2%
49 | C[C@@H](Oc1cc(-n2cnc3ccc(OC4CCN(C)CC4)cc32)sc1C(N)=O)c1ccccc1Cl | 97.8 ± 5.9% | 84.8 ± 6.3% | 99.1 ± 31%
50 | O=C(O)c1cc2c(-c3cccc(-c4ccccc4)c3)cncc2s1 | 107 ± 18% | 90.8 ± 4.9% | 111 ± 28%
51 | CCCNC(=O)c1ccc(Nc2nc(NCC(F)(F)F)c3occc3n2)cc1 | 103 ± 17% | 97.5 ± 22% | 111 ± 6.6%
52 | Cn1cc(-c2ccc(-c3cncc(Cl)c3N3CCC4(CCNC4=O)CC3)cc2)cn1 | 88.4 ± 26% | 115 ± 6.9% | 114 ± 18%
53 | Cn1cc(-c2ccc3[nH]nc(N)c3c2)cn1 | 91.4 ± 9.2% | 106 ± 12% | 108 ± 17%
54 | Cc1ccc(NC(=O)c2cccc(C3(C#N)CCOCC3)c2)cc1C(=O)Nc1ccc2ncsc2c1 | 95.2 ± 40% | 90.1 ± 12% | 86.76 ± 0.37%
55 | CN1CCN(c2nc(C3=C(c4c[nH]c5ccsc45)C(=O)NC3=O)c3ccc(F)cc3n2)CC1 | 120 ± 11% | 89.2 ± 30% | 118 ± 18%
56 | COc1cc(/C=N/Nc2ncnc3[nH]ncc23)ccc1O | 131 ± 62% | 122 ± 41% | 81 ± 7.2%
57 | CC(C)NC(=O)N1CC[C@H](NC2=Nc3cc(F)ccc3N(CC(F)F)c3ccc(Cl)cc32)C1 | 79.7 ± 41% | 65.4 ± 16% | 137 ± 19%
58 | Nc1n[nH]c2cc(-c3ccc4c(c3)OCCO4)ccc12 | 92.2 ± 34% | 85.6 ± 3.3% | 109 ± 5.8%
59 | CNc1nc(-c2ccc3c(N)n[nH]c3c2)cc(N2C[C@@H](C(=O)NC3CCCCC3)CC[C@H]2C)n1 | 98.3 ± 22% | 72.8 ± 5.5% | 76.4 ± 6.9%
60 | O=C(Nc1n[nH]c2nc(-c3nccs3)c(Br)cc12)C1CCCC1 | 112 ± 12% | 93.8 ± 2.8% | 131 ± 63%
61 | CN1CCN(c2cccc(Nc3ncc4c(=O)n(-c5ccccc5Cl)c5nccn5c4n3)c2)CC1.O=C(O)C(F)(F)F.O=C(O)C(F)(F)F | 97 ± 20% | 99.9 ± 24% | 113 ± 22%
62 | O=C1Nc2ccc(C(=O)c3ccco3)cc2C1=Cc1cc(Cl)c(O)c(Cl)c1 | 87.7 ± 11% | 126 ± 2.6% | 124 ± 2.6%
63 | O=c1cc(N2CCOCC2)nc2n(Cc3ccccc3F)ccn12 | 86.9 ± 16% | 107 ± 14% | 92.9 ± 22%
64 | Cc1ccc(C(=O)Nc2ccc(Nc3ccnc4cc(-c5ccccn5)ccc34)cc2O)cc1 | 81.4 ± 17% | 71 ± 10% | 84.54 ± 0.29%
65 | NCC1CCC(CNc2nc(NCc3ccccc3OC(F)(F)F)ncc2[N+](=O)[O-])CC1 (stereo not given) | 96.2 ± 35% | 82.2 ± 9.2% | 111 ± 35%
